Results as given in US8940313B2, “Tyrosine-based prodrugs of antiviral agents” (priority 2010, dated 2015).
At least one compound was matched to its structure with a doubt left. Some entries share one result that the patent states for a list of compounds.

Assays:
HFF cells = format: cell-based, human
[1] = LC-MS analysis of hydrolysis and metabolism products; details: metabolism in intestinal homogenate and in plasma

Row | Compound | IC50 (HFF cells) [µM] | cHPMPA (cHPMPC) released, yield [1]
1 | Nc1ncnc2c1ncn2C[C@@H](CO)OCP(=O)(O)O [Compound 1, (S)-9-(3hydroxy-2-phosphonyl-methoxypropyl)adenine, reference compound] | 100 | –
2 | CC(C)(C)NC(=O)[C@H](N)Cc1ccc(OP2(=O)CO[C@@H](Cn3ccc(N)nc3=O)CO2)cc1 (some centres unmarked) [Compound 2d] | – | 45-50%
